In publication PMC8038991, “R-catcher, a potent molecular tool to unveil the arginylome” (Cellular and Molecular Life Sciences: CMLS, 2021) one finds binding data, which are given here for one substance.

By UniProt entry, the sequences of proteins in these tests, tags left out. Where a name states a change or a piece, a line headed by the entry shows the natural chain unless it says otherwise. Chains listed by the source or under a name are the forms on record and can include a tag or linker.
R-PDI detected in the preliminary N-terminal enrichment experiments (P07237, form named): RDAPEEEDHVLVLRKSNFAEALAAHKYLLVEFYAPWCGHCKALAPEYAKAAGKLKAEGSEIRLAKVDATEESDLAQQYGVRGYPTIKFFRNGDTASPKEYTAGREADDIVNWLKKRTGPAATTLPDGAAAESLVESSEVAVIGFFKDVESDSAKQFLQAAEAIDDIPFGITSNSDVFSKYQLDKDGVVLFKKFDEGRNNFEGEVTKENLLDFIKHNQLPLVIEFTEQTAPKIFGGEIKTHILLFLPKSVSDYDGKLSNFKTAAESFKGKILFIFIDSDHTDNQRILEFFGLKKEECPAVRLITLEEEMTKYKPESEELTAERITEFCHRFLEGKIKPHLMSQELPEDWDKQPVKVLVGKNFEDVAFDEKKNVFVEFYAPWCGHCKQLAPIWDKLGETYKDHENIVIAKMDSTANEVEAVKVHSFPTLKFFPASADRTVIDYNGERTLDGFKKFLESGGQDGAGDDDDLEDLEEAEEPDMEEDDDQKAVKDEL

No constants are given. Whether binding was seen depends on the method and setting. Binding seen in cells or lysates may run through a third protein. These calls come from enrichment with a bait or labelling near it, and not all partners need be listed.

This test deals with R-catcher (Twin StrepII-His6-ZZ_(122-175)^N132D) (human) (UniProt Q13501). Briefly: affinity purification with mass spectrometry; preliminary result: enrichment of protein N-termini after R-catcher pull-down; no details; only the target purified.

With “R-PDI detected in the preliminary N-terminal enrichment experiments (from UniProt P07237 18-508)”, the binding result is on record as “binds”.
